# Test results from US11331387B2, “Self-assembled drug-loading system and preparation method therefor” (SHANGHAI SELECTION BIOSCIENCE LLC., priority 2016, dated 2022).
# Assay: photothermal effect at the solution level, 808 nm laser, infrared imaging camera
# Format: physicochemical
# Details: continuously irradiated with 808 nm laser
compound,measurement,value
"CC1(C)C(/C=C/C=C/C=C/C=C2\N(CCCCS(=O)(=O)[O-])c3ccc4ccccc4c3C2(C)C)=[N+](CCCCS(=O)(=O)[O-])c2ccc3ccccc3c21.[Na+] [ICG, indocyanine green]",temperature raised to,53.9 °C
